Results are given in words; binding and its absence hold for the method and conditions named. Some results given as binding are weak or reduced against the parent protein; the word gives no strength. Sequences can lack the tags named with a protein.

Experiment [1] deals with T1, … TESTA GLABRA1 (TTG1) fused to the GAL4 DNA-binding domain (Arabidopsis thaliana) (UniProt Q9XGN1).
T1 sequence: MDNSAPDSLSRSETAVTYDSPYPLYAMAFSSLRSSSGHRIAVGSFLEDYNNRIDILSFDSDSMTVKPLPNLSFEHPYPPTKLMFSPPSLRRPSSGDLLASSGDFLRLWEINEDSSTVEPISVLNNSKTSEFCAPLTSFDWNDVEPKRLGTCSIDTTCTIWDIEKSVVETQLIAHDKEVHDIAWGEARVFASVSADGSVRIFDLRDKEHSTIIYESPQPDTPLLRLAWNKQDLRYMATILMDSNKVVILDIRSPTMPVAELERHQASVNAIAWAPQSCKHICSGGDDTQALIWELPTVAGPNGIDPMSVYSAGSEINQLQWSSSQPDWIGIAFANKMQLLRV
Briefly: two-hybrid; yeast two-hybrid; GL3 fused to the GAL4 activation domain (pACT), TTG1 and TTG1–YFP fused to the GAL4 DNA-binding domain (pAS); no self-activation; unpublished data.

The target of experiment [2] is T2, TTG1–YFP fused to the GAL4 DNA-binding domain (Arabidopsis thaliana) (UniProt Q9XGN1).
T2 sequence: T1 sequence
The description is as above.

B1: GLABRA3 (GL3) fused to the GAL4 activation domain (protein, UniProt Q9FN69 1-637)
chain: MATGQNRTTVPENLKKHLAVSVRNIQWSYGIFWSVSASQSGVLEWGDGYYNGDIKTRKTIQASEIKADQLGLRRSEQLSELYESLSVAESSSSGVAAGSQVTRRASAAALSPEDLADTEWYYLVCMSFVFNIGEGMPGRTFANGEPIWLCNAHTADSKVFSRSLLAKSAAVKTVVCFPFLGGVVEIGTTEHITEDMNVIQCVKTSFLEAPDPYATILPARSDYHIDNVLDPQQILGDEIYAPMFSTEPFPTASPSRTTNGFDQEHEQVADDHDSFMTERITGGASQVQSWQLMDDELSNCVHQSLNSSDCVSQTFVEGAAGRVAYGARKSRVQRLGQIQEQQRNVKTLSFDPRNDDVHYQSVISTIFKTNHQLILGPQFRNCDKQSSFTRWKKSSSSSSGTATVTAPSQGMLKKIIFDVPRVHQKEKLMLDSPEARDETGNHAVLEKKRREKLNERFMTLRKIIPSINKIDKVSILDDTIEYLQELERRVQELESCRESTDTETRGTMTMKRKKPCDAGERTSANCANNETGNGKKVSVNNVGEAEPADTGFTGLTDNLRIGSFGNEVVIELRCAWREGVLLEIMDVISDLHLDSHSVQSSTGDGLLCLTVNCKHKGSKIATPGMIKEALQRVAWIC
On to B1, for which the binding result in experiment [1] and in experiment [2] was “binds” each time.

Values taken from PMC2422854.
